Experimental data as given in patent US20110077270A1, “Compositions and Methods for Treating Ocular Inflammation with Lower Risk of Increased Intraocular Pressure” (priority 2009, published 2011).
Some entries share one result that the patent states for a list of compounds.

Columns and labels:
Format in all cases: in vivo
[1] = test system: MPO activity in iris-ciliary body; test: Myeloperoxidase (MPO) activity in iris-ciliary body, rabbit paracentesis model
Protocol: (§1) Each rabbit was placed in a restraint device and tagged with the alphanumeric code. The formulations were instilled (50 μl) into the conjunctival sac of both eyes 180, 120, 90 and 30 min before the first paracentesis; then 15, 30, 90 min after the first paracentesis. To perform the first paracentesis the animals were anaesthetized by intravenous injection of 5 mg/kg Zoletil® (Virbac; 2.5 mg/kg tiletamine HCl and 2.5 mg/kg zolazepam HCl) and one drop of local anesthetic (Novesina®, Novartis) was administered to the eye. Anterior chamber paracentesis was performed with a 26 G needle attached to a tuberculin syringe; the needle was introduced into the anterior chamber through the cornea, taking care not to damage the tissues. Two hours after the first paracentesis, the animals were sacrificed with 0.4 ml Tanax® (Intervet International B.V.) and the second paracentesis was performed. About 100 μl of aqueous humor were removed at the second paracentesis. Aqueous humor was immediately split in four aliquots and stored at −80° C. until analysis. Then both eyes were enucleated and the iris-ciliary body was carefully excised, placed in polypropylene tubes, and stored at −80° C. until analysis.
The activity of MPO was measured as previously described by Williams et al.[5] The iris-ciliary bodies were carefully dried, weighed and immersed in 1 ml of hexa-decyl-trimethyl-ammonium bromide solution. Then, the samples were sonicated for 10 sec on ice by a ultrasound homogenizer (HD 2070, Bandelin electronic), freeze-thawed three times, sonicated for 10 sec and centrifuged at 14,000 g for 10 min to remove cellular debris. An aliquot of the supernatant ([…] was diluted to 3 ml with the o-dianisidine 2HCl/H2O2 solution. The change in absorbance at 460 nm was continuously monitored for 5 min by a spectrophotometer (UV/Vis Spectrometer Lambda EZ 201; Perkin Elmer). The slope of the line (Δ/min) was determined for each sample and used to calculate the number of units of MPO in the tissue as follows:
were ε=11.3 mM^−1. Values were expressed as units of MPO/g of tissue.

[2] = test system: PGE2 in the aqueous humor; test: Prostaglandin E2 (PGE2) measurement in aqueous humor, rabbit paracentesis model
Protocol: as §1
For the quantitative determination of PGE2 in the aqueous humor we used the PGE2 Immunoassay kit (R&D Systems; Cat. No. KGE004; Lot. No. 240010). Eleven microliters or 16 μl of aqueous humor were diluted to 110 μl or 160 μl with the calibrator diluent solution provided with the kit. One hundred microliters of samples and of standards were load into a 96-well plate and recorded in a plate layout. Samples were treated following the assay procedure described in the kit. A microplate reader (GDV, Italy; model DV 990 B/V6) set at 450 nm (wavelength correction at 540 nm) was used for making the calibration and analyzing the samples.

[3] = test system: protein concentration in the aqueous humor; test: Protein measurement in aqueous humor, rabbit paracentesis model
Protocol: as §1, with “Aqueous humor was immediately split in four aliquots and stored at −80° C. until analysis. Then both eyes were enucleated and the iris-ciliary body was carefully excised, placed in polypropylene tubes, and stored at −80° C. until analysis.” left out
For protein concentration determination in the aqueous humor we used the Protein Quantification Kit (Fluka; Cat. No. 77371; Lot. No. 1303129). […] Twenty microliters of samples and of standards were load into a 96-well plate and recorded in a plate layout. […] A microplate reader (GDV, Italy; model DV 990 B/V6) set at 670 nm was used for making the calibration and analyzing the samples.

Row | SMILES | MPO, p vs CTR ([1]; 0.5% topical formulation) | PGE2, p versus CTR ([2]; 0.5% topical formulation) | MPO, p vs CTR ([1]; 0.1% topical formulation) | other results
1 | CCOC(=O)O[C@]1(C(=O)OCCl)CC[C@H]2[C@@H]3CCC4=CC(=O)C=C[C@]4(C)[C@H]3[C@@H](O)C[C@@]21C [LE, loteprednol etabonate, reference compound] | < 0.001 | < 0.05 | – | –
2 | Cc1ccc2c(NCC(O)(CC(C)(C)c3cc(F)cc4c3OCC4)C(F)(F)F)cccc2n1 (centres unmarked) [BOL-303242-X] | < 0.001 | < 0.05 | < 0.001 | MPO, p vs CTR ([1]; 1% topical formulation): < 0.001; Protein, p vs CTR ([3]; 1% topical formulation): < 0.001; PGE2, p versus CTR ([2]; 0.1% topical formulation): < 0.05
3 | C[C@@H]1C[C@H]2[C@@H]3CCC4=CC(=O)C=C[C@]4(C)[C@@]3(F)[C@@H](O)C[C@]2(C)[C@@]1(O)C(=O)CO [Dex, dexamethasone, reference compound] | – | – | < 0.001 | –
4 | CC(C(=O)O)c1ccc(-c2ccccc2)c(F)c1 (centres unmarked) [F, flurbiprofen, reference compound] | – | – | – | Protein, p vs CTR ([3]; 0.03% topical formulation): < 0.001; PGE2, p versus CTR ([2]; 0.03% topical formulation): < 0.05
